The record followed here is PubChem BioAssay AID2685 (National Center for Advancing Translational Sciences (NCATS), 2010).

By AC50 is commonly meant the concentration at which the activity in the assay is half-maximal. A higher AC50 goes with weaker potency.

Structures are written as SMILES. Some of the results follow. Further columns of the screen follow, without active or inactive calls. The list favours compounds with an active or inconclusive main result. The note in brackets gives the kind of curve behind each potency; many fits are weak.

The test in a line: qHTS Assay for Lipid Storage Modulators in Drosophila S3 Cells.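 As to cell number change: cells counted by Cell Tracker Red CMTPX staining in the red channel.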 The note with it: BODIPY lipid droplet fluorescence, 18-24 h; for cell number change: measured here: cell count max response, cells fed with added oleic acid. In short, it runs like this:
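Drosophila S3 cells loaded with oleic acid (400 uM, as added) and compounds at several concentrations; lipid droplets imaged by 488-nm laser-scanning cytometry, 500–530 nm intensity and object ratio to cell channel. Percent activity normalized to 20 uM Triacsin C.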

The mark [1] stands for this setting: measured here: lipid fluorescence (Fed channel) AC50, cells fed with added oleic acid.
Where [2] appears, read: measured here: cell number channel AC50, cells fed with added oleic acid.

Turning to `Cc1nc(SCc2ccccc2)[nH]c(=O)c1CC(=O)OCC(C)C`, the cell number change was 5.56%. Also, the AC50 under setting [1] is 29.1 µM [falling, partial curve, poor fit].

With `Cc1ccc(C(C)C)c(OCc2ccc(C(=O)N/N=C/c3cccc(O)c3O)cc2)c1`, the cell number change is -70.4%. For the same compound, under setting [2], the AC50 was 16.4 µM [falling, partial curve]. Also, the AC50 under setting [1] is 6.51 µM [falling, full curve].

For the compound `COc1ccccc1C(=O)NC1CCN(C(=O)Nc2ccc(F)cc2)CC1`, the cell number change turned out to be 50.5%. For the same compound, under setting [2], the AC50 was 0.58 µM [rising, partial curve, poor fit].

For the compound `CCOc1ccc(NC(=S)NC(=O)c2cccnc2)c([N+](=O)[O-])c1`, the cell number change was -17.6%. Besides, the AC50 under setting [1] is 5.17 µM [falling, partial curve].

`CCn1ncc(/C=C/C(=O)Nc2c(C)nn(Cc3ccc(Cl)cc3Cl)c2C)c1C`: the cell number change worked out at 73.2%. Also, the AC50 under setting [2] was 20.6 µM [rising, single point]. Under setting [1], the AC50 was 20.6 µM [rising, partial curve].

Consider `COc1ccc(CNC(=O)[C@@H](C)NC(=O)[C@@H]2Cc3ccccc3CN2)cc1`, for which the cell number change was determined as 3.56%. Further, the concentration at half-maximal activity (AC50) under setting [1] was 0.58 µM [rising, single point].

On to `COc1ccc(NC(=O)CSc2nnc(Cn3nnc4ccccc43)n2C)cc1`, for which the cell number change is 18%.

As for `CC(C(=O)N(C)C1CCS(=O)(=O)C1)N1C(=O)/C(=C/c2ccc(F)cc2)SC1=S` (stereo not drawn), the cell number change is -7.31%. Moreover, the AC50 under setting [1] is 29.1 µM [falling, single point].

Turning to `COCCCNC(=S)NNC(=O)c1cc(-c2ccncc2)nc2ccccc12`, the cell number change is -5.94%. Under setting [1], the AC50 was 29.1 µM [falling, single point].

As for `CC(=O)N1CCN(c2ccc(Oc3nnnn3-c3ccccc3)cc2)CC1`, the cell number change is -6.47%. Besides, the AC50 under setting [1] was 0.0058 µM [rising, full curve, poor fit].

For `O=C(OCC(=O)N1CCCC1)c1cncc(Br)c1`, the cell number change was -25.9%. In addition, the AC50 under setting [1] was 0.651 µM [falling, partial curve, poor fit].

Regarding `CCN(CC)CCCOC(=O)C(c1ccccc1)c1ccccc1`, the cell number change was -10%. Besides, the AC50 under setting [2] was 6.51 µM [rising, single point]. Also, the AC50 under setting [1] was 6.51 µM [rising, single point].

On to `CC(C)N(CC#CCC1(O)c2ccccc2-c2ccccc21)CCO`, for which, under setting [1], the AC50 is 2.91 µM [falling, single point].

`Cc1ccccc1C(O)c1cccnc1` (stereo not drawn): the cell number change is -13%. For the same compound, the AC50 under setting [1] was 0.0731 µM [rising, full curve, poor fit].

In the case of `CC(C)CN(C(=O)Cn1c(Cl)nc2c1c(=O)n(C)c(=O)n2C)C1CCS(=O)(=O)C1` (stereo not drawn), the AC50 reads like this: under setting [2], 6.51 µM [falling, single point]; under setting [1], 6.51 µM [falling, single point].

In the case of `CC[n+]1ccc(C(=O)NCc2ccccc2)cc1`, the cell number change came out at 78.6%.

In the case of `COCC(=O)N1CCC(n2nnc3cc(F)ccc32)CC1`, the cell number change turned out to be 4.11%. Besides, under setting [1], the AC50 is 0.13 µM [rising, full curve, poor fit].

Regarding `CCC(C)NC(=O)CSc1ncnc2sccc12` (stereo not drawn), the cell number change was -39.6%. Also, the AC50 under setting [2] was 7.31 µM [falling, partial curve, poor fit]. For the same compound, the AC50 under setting [1] was 1.64 µM [falling, partial curve, poor fit].

For the compound `CCOC(=O)C1C(=O)NC(N2CCN(CC)CC2)=NC1c1ccccc1` (stereo not drawn), the cell number change worked out at 6.31%. Also, the AC50 under setting [1] was 23.1 µM [falling, partial curve].

Regarding `CCn1c(C)cc2c(c1=O)C(c1ccccc1Br)C(C#N)=C(N)O2` (stereo not drawn), the cell number change was -17.3%. Moreover, the AC50 under setting [2] was 0.461 µM [falling, full curve, poor fit]. For the same compound, the AC50 under setting [1] was 2.91 µM [rising, single point].

For the compound `CN(C)CCCNS(=O)(=O)c1cc(Cl)ccc1Cl`, the cell number change was -26.5%. Besides, the AC50 under setting [1] is 5.17 µM [falling, partial curve].

`CC(=O)N/C(=C/c1ccc(OS(=O)(=O)c2ccc(C)cc2)cc1)C(=O)NCCCO`: the cell number change is -22.1%. Also, the AC50 under setting [2] was 2.06 µM [falling, full curve, poor fit]. For the same compound, the AC50 under setting [1] is 1.3 µM [falling, full curve, poor fit].

With `O=C(NCCN1CCOCC1)/C(=C\c1ccc(F)cc1)NC(=O)c1ccccc1`, the cell number change came out at 38%. Also, the AC50 under setting [2] was 9.2 µM [rising, partial curve]. For the same compound, under setting [1], the AC50 was 29.1 µM [rising, single point].

On to `O=C1CCCC2=C1C(c1ccco1)Nc1ccc3ccccc3c12` (stereo not drawn), for which the cell number change is -18.6%. Also, the AC50 under setting [1] was 20.6 µM [falling, single point].

In the case of `COc1ccc(OC)c(S(=O)(=O)N2CCCCC2C(=O)O)c1` (stereo not drawn), the cell number change is -29.9%. In addition, the AC50 under setting [2] was 0.231 µM [falling, full curve, poor fit]. Under setting [1], the AC50 was 0.731 µM [falling, full curve].

Regarding `COc1ccc(/C=N/NC(=O)c2ccc3c(c2)OCO3)cc1`, the cell number change turned out to be 37%. Further, under setting [2], the AC50 was 25.9 µM [rising, single point]. Under setting [1], the AC50 was 0.206 µM [rising, full curve, poor fit].

As to `CCNc1nc(SC)nc(N(C#N)CC(=O)OC)n1`, the cell number change was 46.3%. In addition, the AC50 under setting [2] is 6.51 µM [rising, partial curve, poor fit]. The AC50 under setting [1] was 5.17 µM [rising, single point].

`Fc1ccc(/C=C2\CCCC3=C2Nc2ncnn2C3c2ccc(F)cc2)cc1` (stereo not drawn): the cell number change was -42.1%. Besides, the AC50 under setting [2] is 1.3 µM [falling, full curve, poor fit]. The AC50 under setting [1] is 0.731 µM [falling, full curve, poor fit].

Take `Cc1noc(C)c1S(=O)(=O)N1CCC(C(=O)c2ccccc2)CC1`: the cell number change is -21.3%.

For `NNC(=O)Cn1nnc(-c2ccc(C(F)(F)F)cc2)n1`, the cell number change was 27.7%.

Consider `O=C(OCc1ccc(O)cc1)c1c(-c2ccsc2)oc2ccc(N3CCOCC3)cc12`, for which the cell number change is -12.9%.

Take `Cc1cc(Nc2ccc(Cl)cc2)n2ncnc2n1`: the cell number change was -2.12%. For the same compound, under setting [1], the concentration at half-maximal activity (AC50) was 16.4 µM [falling, single point].

For the compound `O=c1[nH]cnc(O)c1C(c1ccc2c(c1)OCO2)c1c(O)nc[nH]c1=O`, the cell number change was -20%. Further, the AC50 under setting [1] is 0.92 µM [falling, full curve, poor fit].

Take `O=C(CN1C(=O)NC2(CCCc3ccccc32)C1=O)NCC(F)(F)F` (stereo not drawn): the cell number change worked out at 11.3%. Moreover, the AC50 under setting [1] is 5.8 µM [falling, single point].

With `Cc1nn(-c2ccccc2)c(N2CCCCC2)c1/C=N/O`, the cell number change was -36.7%.

For the compound `Oc1ccc(/C=N/N(c2ccccc2)c2ccccc2)cc1O`, the cell number change was 14.6%. In addition, the half-maximal activity concentration (AC50) under setting [1] was 0.58 µM [falling, single point].

Consider `O=C(CSc1nnc(CNC(=O)c2cccs2)o1)NCc1ccc(F)cc1`, for which the cell number change amounted to 1.76%. In addition, the AC50 under setting [1] was 1.16 µM [rising, full curve, poor fit].

As to `CCOC(=O)C1(Cc2cccc(Cl)c2)CCCN(C(=O)CCSC)C1` (stereo not drawn), the cell number change is -30.2%. Moreover, under setting [2], the AC50 was 5.17 µM [falling, full curve, poor fit]. The AC50 under setting [1] was 7.31 µM [falling, partial curve].

`Cc1cccc(N2CCN(C(=O)Cn3sc4nc(C)cc(C)c4c3=O)CC2C)c1` (stereo not drawn): the cell number change is -60%. The AC50 under setting [2] is 20.6 µM [falling, partial curve, poor fit]. For the same compound, the AC50 under setting [1] was 0.0184 µM [falling, full curve, poor fit].

For the compound `COc1ccccc1-n1c(=S)sc2c(=O)n(Cc3ccco3)c(SC)nc21`, the cell number change is -22.4%. Further, the AC50 under setting [1] was 16.4 µM [rising, single point].

As for `CCS(=O)(=O)N1CCN(c2ccccn2)CC1`, the cell number change was 1.65%.

For `CC1=NN(C(N)=S)C(=O)C1N=Nc1cccc([N+](=O)[O-])c1` (stereo not drawn), the cell number change is 45.1%. Further, the AC50 under setting [2] was 29.1 µM [rising, single point].

On to `CCCCNC(=O)c1cc2cccc([N+](=O)[O-])c2[nH]1`, for which the cell number change worked out at 11.2%. Also, under setting [1], the AC50 was 0.461 µM [rising, full curve].

As to `CC1CCCC(NC(=O)COC(=O)c2ccc3ncsc3c2)C1C` (stereo not drawn), the cell number change stood at 29.2%. Besides, the AC50 under setting [1] was 6.51 µM [rising, partial curve, poor fit].

`COCCn1c(CN(Cc2ccccc2)Cc2ccccc2)nc2c1c(=O)n(C)c(=O)n2C`: the cell number change was determined as 14.1%.

For the compound `O=C(CCS(=O)(=O)c1ccc(Cl)cc1)NCCc1c[nH]c2ccccc12`, the cell number change is 8.47%. For the same compound, the AC50 under setting [2] is 0.082 µM [rising, full curve, poor fit]. Moreover, the AC50 under setting [1] is 6.51 µM [rising, partial curve, poor fit].

As to `COc1ccc(/C=N/NC(=O)c2ccn[nH]2)cc1CSc1ccccn1`, the cell number change is -2.29%. Under setting [1], the AC50 is 0.651 µM [rising, single point].

As to `Cc1ccc(C)c(S(=O)(=O)c2c(N)n(/N=C/c3ccco3)c3nc4ccccc4nc23)c1`, the cell number change was -22%. Under setting [1], the AC50 is 1.64 µM [rising, partial curve].

For `CC(C)NC(=O)C(=O)NCCN1CCN(C(=O)c2ccc(C(C)(C)C)cc2)CC1`, the cell number change stood at 90.8%. Besides, under setting [2], the AC50 is 29.1 µM [rising, single point].

On to `Fc1ccccc1/C=N/NC(=S)Nc1ccc(Cl)cc1Cl`, for which the cell number change was -31.9%. Also, the AC50 under setting [2] is 16.4 µM [falling, single point]. Besides, the AC50 under setting [1] was 0.184 µM [falling, partial curve, poor fit].

For `CN(C)S(=O)(=O)c1cccc(NC(=O)COC(=O)c2cc(=O)c3ccccc3o2)c1`, the cell number change turned out to be 13.2%.

`O=C(c1cccc(F)c1)N1CCN(C(=O)c2cc3nc(-c4ccco4)cc(C(F)(F)F)n3n2)CC1`: the cell number change is -11.4%. In addition, the AC50 under setting [1] was 6.51 µM [rising, single point].

Take `O=C(O)c1nn(CCSc2ccccc2F)c(=O)c2ccccc12`: the cell number change came to 7.13%.

On to `Cn1nc(C(=O)Nc2cccc(C(=O)NC3CC3)c2)c2ccccc2c1=O`, for which the cell number change is -3.07%.

Consider `O=C(OCC1COc2ccccc2O1)c1ccccc1F` (stereo not drawn), for which the cell number change was -12.8%. The AC50 under setting [1] is 6.51 µM [rising, partial curve, poor fit].

For the compound `CCCCc1nnc(SCc2ccc(OCC)cc2)n1N`, the cell number change was 4.08%. For the same compound, under setting [1], the AC50 is 0.0164 µM [falling, full curve].

For the compound `NS(=O)(=O)c1ccc(Nc2nc(-c3ccc(F)cc3)cs2)cc1`, the cell number change worked out at 45.9%.

Take `COc1cccc(NC(=O)N2CCCC2C(=O)NC2CCCCC2)c1` (stereo not drawn): the cell number change turned out to be 2.86%. For the same compound, the AC50 under setting [1] was 29.1 µM [rising, single point].
